Source: the supplement of paper PMC4604168 (melanoma cell lines)
The other results are listed elsewhere or left out. Single values are uncertain, as repeats are few or missing.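 Cells were imaged in 1,536-well plates, and nuclei stained with an antibody against cleaved PARP were counted against all DNA-stained nuclei to give the apoptosis fraction. Screening doses were chosen to leave most cells alive, and resting and induced cleaved-PARP levels differ strongly between cell lines.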

Key:
Experiment in all cases: cleaved PARP positive nuclei fraction relative to DMSO control; melanoma cells; higher = more apoptosis
Conditions in all cases: library dose: low library concentration; 72 h
MZ2-MEL = test system: MZ2-MEL
MeWo = test system: MeWo
RPMI7951 = test system: RPMI7951
RVH-421 = test system: RVH-421
SkMel28 = test system: SkMel28
SkMel2 = test system: SkMel2
SkMel30 = test system: SkMel30
SkMel5 = test system: SkMel5
UACC257 = test system: UACC257
UACC62 = test system: UACC62
WM115 = test system: WM115
WM1716 = test system: WM1716
WM1745 = test system: WM1745
WM3526 = test system: WM3526
WM3619 = test system: WM3619
WM451Lu = test system: WM451Lu

Compound	cleaved PARP positive nuclei fraction (MZ2-MEL) [%]	cleaved PARP positive nuclei fraction (MeWo) [%]	cleaved PARP positive nuclei fraction (RPMI7951) [%]	cleaved PARP positive nuclei fraction (RVH-421) [%]	cleaved PARP positive nuclei fraction (SkMel28) [%]	cleaved PARP positive nuclei fraction (SkMel2) [%]	cleaved PARP positive nuclei fraction (SkMel30) [%]	cleaved PARP positive nuclei fraction (SkMel5) [%]	cleaved PARP positive nuclei fraction (UACC257) [%]	cleaved PARP positive nuclei fraction (UACC62) [%]	cleaved PARP positive nuclei fraction (WM115) [%]	cleaved PARP positive nuclei fraction (WM1716) [%]	cleaved PARP positive nuclei fraction (WM1745) [%]	cleaved PARP positive nuclei fraction (WM3526) [%]	cleaved PARP positive nuclei fraction (WM3619) [%]	cleaved PARP positive nuclei fraction (WM451Lu) [%]
O=C(Nc1cc(C(F)(F)F)cc(C(F)(F)F)c1)c1cc(Cl)ccc1O + O=C(CCCCCCC(=O)Nc1ccccc1)NO [vorinostat] (first compound 0.016 µM, partner dose 0.08 µM)	97.7	38.7	162	56.2	606	73.6	63.4	217	170	156	181	452	85.2	139	96.3	76.4
O=c1[nH]nc(Sc2ncc([N+](=O)[O-])s2)n1-c1ccc2c(c1)OCCO2 + COc1cc(Nc2ncc(F)c(Nc3ccc4c(n3)NC(=O)C(C)(C)O4)n2)cc(OC)c1OC [Tamatinib] (first compound 0.2 µM, partner dose 0.4 µM)	105	129	80.9	59.5	135	87	83.2	258	51.2	77	115	161	120	42.8	93.4	125
N#CC[C@H](C1CCCC1)n1cc(-c2ncnc3[nH]ccc23)cn1 [ruxolitinib] + CCc1ccc(CCOc2ccc(CC3SC(=O)NC3=O)cc2)nc1 [pioglitazone] (first compound 1 µM, partner dose 2 µM)	126	25.4	85.6	191	101	65.9	90.2	72.9	78.2	68.9	131	447	95.1	38.5	102	68.5
Cc1cn(-c2cc(NC(=O)c3ccc(C)c(Nc4nccc(-c5cccnc5)n4)c3)cc(C(F)(F)F)c2)cn1 [nilotinib] + Cn1cc(/C=C2\C(=O)Nc3cccnc32)c2ccccc21 [GW441756] (first compound 0.2 µM, partner dose 0.4 µM)	107	93.5	26.8	35.8	138	19.7	97.9	145	129	89.7	87.5	79.2	91.4	219	105	82.2
Cc1ccc(Nc2nccc(N(C)c3ccc4c(C)n(C)nc4c3)n2)cc1S(N)(=O)=O [Pazopanib] + NC(=O)Nc1cc(-c2cccc(F)c2)sc1C(=O)N[C@H]1CCCNC1 [AZD7762] (first compound 0.4 µM, partner dose 0.02 µM)	61.3	49.8	223	205	39.6	105	73.2	65.2	28.8	81.6	85	107	131	67.4	178	46.7
Cc1ccc(Nc2nccc(N(C)c3ccc4c(C)n(C)nc4c3)n2)cc1S(N)(=O)=O [Pazopanib] + COc1cc(N2CCC(N3CCN(C)CC3)CC2)ccc1Nc1ncc(Cl)c(Nc2ccccc2S(=O)(=O)C(C)C)n1 [NVP-TAE684] (first compound 0.4 µM, partner dose 0.08 µM)	44.5	94.3	103	96.5	128	71	62.2	79.7	113	115	56.3	129	117	99.6	135	51.8
O=C(Nc1cc(C(F)(F)F)cc(C(F)(F)F)c1)c1cc(Cl)ccc1O + CO[C@@H]1[C@H](N(C)C(=O)c2ccccc2)C[C@H]2O[C@]1(C)n1c3ccccc3c3c4c(c5c6ccccc6n2c5c31)C(=O)NC4 [Midostaurin] (first compound 0.016 µM, partner dose 0.08 µM)	106	131	171	104	267	105	60.1	173	94.7	55.9	388	90.7	116	69.6	93.2	60.3
Cc1cc(Nc2cc(N3CCN(C)CC3)nc(Sc3ccc(NC(=O)C4CC4)cc3)n2)n[nH]1 [Tozasertib] + O=C(Nc1cccc(Cl)c1)Nc1ncc(CCNc2ncnc3ccsc23)s1 [SNS314] (first compound 0.006 µM, partner dose 0.0008 µM)	139	151	236	59.8	62.2	98.9	62.3	65.7	64.8	36.1	116	81.6	116	64.9	83.5	53.8
Cc1cc(Nc2cc(N3CCN(C)CC3)nc(Sc3ccc(NC(=O)C4CC4)cc3)n2)n[nH]1 [Tozasertib] + C=CCn1c(=O)c2cnc(Nc3ccc(N4CCN(C)CC4)cc3)nc2n1-c1cccc(C(C)(C)O)n1 [MK1775] (first compound 0.006 µM, partner dose 0.02 µM)	118	113	162	150	141	82.3	56.6	83.2	54.9	73.1	155	67.7	188	50.6	74.8	146
O=C(/C=C/c1cccnc1)NCCCCC1CCN(C(=O)c2ccccc2)CC1 + CO[C@@H]1[C@H](N(C)C(=O)c2ccccc2)C[C@H]2O[C@]1(C)n1c3ccccc3c3c4c(c5c6ccccc6n2c5c31)C(=O)NC4 [Midostaurin] (first compound 0.01 µM, partner dose 0.08 µM)	1060	48.1	56.3	198	35.9	463	71.5	76.4	39.5	112	285	125	225	62.4	151	157
COc1cc([C@@H]2c3cc4c(cc3[C@@H](O[C@@H]3O[C@@H]5CO[C@@H](C)O[C@H]5[C@H](O)[C@H]3O)[C@H]3COC(=O)[C@H]23)OCO4)cc(OC)c1O [etoposide] + c1cc(-c2cnn3cc(-c4ccc(OCCN5CCCCC5)cc4)cnc23)ccn1 [Dorsomorphin] (first compound 0.02 µM, partner dose 0.4 µM)	62.7	223	43.4	26.4	147	61.8	77.4	93.1	160	60.2	41	186	112	134	98.7	165
CC[C@]1(O)C[C@H]2CN(CCc3c([nH]c4ccccc34)[C@@](C(=O)OC)(c3cc4c(cc3OC)N(C=O)[C@H]3[C@@](O)(C(=O)OC)[C@H](OC(C)=O)[C@]5(CC)C=CCN6CC[C@]43[C@@H]65)C2)C1 [vincristine] + Cc1cc(N2CCOCC2)cc2[nH]c(-c3c(NC[C@@H](O)c4cccc(Cl)c4)cc[nH]c3=O)nc12 [BMS536924] (first compound 0.0001 µM, partner dose 0.2 µM)	428	166	124	150	659	99.3	248	188	862	612	1020	636	123	289	178	1100
O=C(/C=C/c1cccnc1)NCCCCC1CCN(C(=O)c2ccccc2)CC1 + CCc1ccc(CCOc2ccc(CC3SC(=O)NC3=O)cc2)nc1 [pioglitazone] (first compound 0.01 µM, partner dose 2 µM)	614	230	45.2	166	249	391	53.9	88.7	102	134	154	104	97.1	74.2	100	158
Cc1cn(-c2cc(NC(=O)c3ccc(C)c(Nc4nccc(-c5cccnc5)n4)c3)cc(C(F)(F)F)c2)cn1 [nilotinib] + COc1cc2c(Oc3ccc4[nH]c(C)cc4c3F)ncnc2cc1OCCCN1CCCC1 [cediranib] (first compound 0.2 µM, partner dose 0.4 µM)	74	105	104	61.3	38.8	139	77	69.7	152	182	75.5	108	108	49.1	125	28.6
Cc1ccc(Nc2nccc(N(C)c3ccc4c(C)n(C)nc4c3)n2)cc1S(N)(=O)=O [Pazopanib] + N#Cc1c(O)c2c(-c3ccc(-c4ccccc4O)cc3)csc2[nH]c1=O [A769662] (first compound 0.4 µM, partner dose 2 µM)	83.6	74.7	146	63.1	136	65.1	43.5	292	249	112	163	115	81.7	163	87.3	93.4
O=C(Nc1cc(C(F)(F)F)cc(C(F)(F)F)c1)c1cc(Cl)ccc1O + O=C(Nc1cccc(Cl)c1)Nc1ncc(CCNc2ncnc3ccsc23)s1 [SNS314] (first compound 0.016 µM, partner dose 0.0008 µM)	192	65.4	106	94.3	42.2	67.5	64.1	164	166	90	116	75.8	98.8	55.9	212	60.3
Cc1ccc(Nc2nccc(N(C)c3ccc4c(C)n(C)nc4c3)n2)cc1S(N)(=O)=O [Pazopanib] + CO[C@@H]1[C@H](N(C)C(=O)c2ccccc2)C[C@H]2O[C@]1(C)n1c3ccccc3c3c4c(c5c6ccccc6n2c5c31)C(=O)NC4 [Midostaurin] (first compound 0.4 µM, partner dose 0.08 µM)	43.1	28.3	62.1	55.1	56.1	94.2	97.5	331	400	26.4	159	159	143	78	100	94.6
O=C(/C=C/c1cccnc1)NCCCCC1CCN(C(=O)c2ccccc2)CC1 + O=C(Nc1ccccc1)c1cc([N+](=O)[O-])ccc1Cl [GW9662] (first compound 0.01 µM, partner dose 2 µM)	813	111	144	149	96.5	1180	79.9	82.5	25.6	61	37.3	54.2	80.5	137	147	59.3

Record cards, from the list above. Order of values: cleaved PARP positive nuclei fraction (MZ2-MEL) [%] | cleaved PARP positive nuclei fraction (MeWo) [%] | cleaved PARP positive nuclei fraction (RPMI7951) [%] | cleaved PARP positive nuclei fraction (RVH-421) [%] | cleaved PARP positive nuclei fraction (SkMel28) [%] | cleaved PARP positive nuclei fraction (SkMel2) [%] | cleaved PARP positive nuclei fraction (SkMel30) [%] | cleaved PARP positive nuclei fraction (SkMel5) [%] | cleaved PARP positive nuclei fraction (UACC257) [%] | cleaved PARP positive nuclei fraction (UACC62) [%] | cleaved PARP positive nuclei fraction (WM115) [%] | cleaved PARP positive nuclei fraction (WM1716) [%] | cleaved PARP positive nuclei fraction (WM1745) [%] | cleaved PARP positive nuclei fraction (WM3526) [%] | cleaved PARP positive nuclei fraction (WM3619) [%] | cleaved PARP positive nuclei fraction (WM451Lu) [%]
O=C(Nc1cc(C(F)(F)F)cc(C(F)(F)F)c1)c1cc(Cl)ccc1O + O=C(Nc1cccc(Cl)c1)Nc1ncc(CCNc2ncnc3ccsc23)s1 [SNS314] (first compound 0.016 µM, partner dose 0.0008 µM) reads 192 | 65.4 | 106 | 94.3 | 42.2 | 67.5 | 64.1 | 164 | 166 | 90 | 116 | 75.8 | 98.8 | 55.9 | 212 | 60.3
O=C(/C=C/c1cccnc1)NCCCCC1CCN(C(=O)c2ccccc2)CC1 + CCc1ccc(CCOc2ccc(CC3SC(=O)NC3=O)cc2)nc1 [pioglitazone] (first compound 0.01 µM, partner dose 2 µM) reads 614 | 230 | 45.2 | 166 | 249 | 391 | 53.9 | 88.7 | 102 | 134 | 154 | 104 | 97.1 | 74.2 | 100 | 158
